Source: the supplement of paper PMC10849652
This is one part of the list.

Amino acid sequences for entries named in this document (tags omitted). A change or cut given only in a name is not applied to a line headed by its entry.
UniProt Q9BVC5: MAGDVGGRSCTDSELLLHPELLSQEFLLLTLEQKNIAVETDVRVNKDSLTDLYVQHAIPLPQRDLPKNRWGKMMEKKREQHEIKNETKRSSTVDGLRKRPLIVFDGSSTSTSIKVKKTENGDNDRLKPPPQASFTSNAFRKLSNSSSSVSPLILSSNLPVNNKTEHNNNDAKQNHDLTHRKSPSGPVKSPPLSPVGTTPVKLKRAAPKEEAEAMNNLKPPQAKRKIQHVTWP
UniProt Q9HAS0: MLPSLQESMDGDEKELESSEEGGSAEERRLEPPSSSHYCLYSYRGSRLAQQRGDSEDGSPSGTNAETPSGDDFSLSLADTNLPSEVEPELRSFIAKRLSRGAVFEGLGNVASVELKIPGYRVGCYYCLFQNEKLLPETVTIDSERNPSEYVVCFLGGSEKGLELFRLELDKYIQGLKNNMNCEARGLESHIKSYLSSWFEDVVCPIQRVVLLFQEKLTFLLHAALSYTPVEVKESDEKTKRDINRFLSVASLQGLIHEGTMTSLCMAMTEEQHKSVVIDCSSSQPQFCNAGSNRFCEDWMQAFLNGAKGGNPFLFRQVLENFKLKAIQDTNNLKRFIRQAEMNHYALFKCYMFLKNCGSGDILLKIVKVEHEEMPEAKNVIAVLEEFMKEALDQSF
UniProt Q9Y6W3: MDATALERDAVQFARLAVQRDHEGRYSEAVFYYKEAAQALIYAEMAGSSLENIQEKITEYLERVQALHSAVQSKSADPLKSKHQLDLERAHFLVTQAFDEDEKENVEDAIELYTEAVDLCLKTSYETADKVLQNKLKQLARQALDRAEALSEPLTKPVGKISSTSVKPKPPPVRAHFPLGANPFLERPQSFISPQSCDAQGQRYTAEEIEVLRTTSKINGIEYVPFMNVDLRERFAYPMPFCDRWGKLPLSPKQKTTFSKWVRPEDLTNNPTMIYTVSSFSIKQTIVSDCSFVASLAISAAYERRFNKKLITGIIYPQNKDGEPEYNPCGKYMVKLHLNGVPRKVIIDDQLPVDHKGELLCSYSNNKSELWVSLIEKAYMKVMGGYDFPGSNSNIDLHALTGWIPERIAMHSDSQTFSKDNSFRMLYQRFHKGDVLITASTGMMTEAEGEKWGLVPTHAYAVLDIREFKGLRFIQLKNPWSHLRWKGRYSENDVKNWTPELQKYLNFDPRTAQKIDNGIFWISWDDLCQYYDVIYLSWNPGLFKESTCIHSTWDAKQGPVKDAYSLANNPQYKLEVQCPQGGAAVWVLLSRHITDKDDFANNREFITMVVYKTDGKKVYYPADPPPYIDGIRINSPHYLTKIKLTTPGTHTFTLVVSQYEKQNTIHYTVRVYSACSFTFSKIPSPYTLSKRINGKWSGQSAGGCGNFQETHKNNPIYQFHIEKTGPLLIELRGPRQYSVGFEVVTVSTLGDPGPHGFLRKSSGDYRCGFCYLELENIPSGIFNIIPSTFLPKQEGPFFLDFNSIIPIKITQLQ
UniProt Q07021: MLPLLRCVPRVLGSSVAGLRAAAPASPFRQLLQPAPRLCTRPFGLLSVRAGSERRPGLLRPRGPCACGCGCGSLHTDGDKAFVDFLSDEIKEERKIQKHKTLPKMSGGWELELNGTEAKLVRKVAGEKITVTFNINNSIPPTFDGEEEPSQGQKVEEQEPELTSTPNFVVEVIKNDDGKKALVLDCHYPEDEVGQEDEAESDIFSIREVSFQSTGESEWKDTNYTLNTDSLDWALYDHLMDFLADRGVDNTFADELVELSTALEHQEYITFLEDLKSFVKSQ
UniProt Q96EU7: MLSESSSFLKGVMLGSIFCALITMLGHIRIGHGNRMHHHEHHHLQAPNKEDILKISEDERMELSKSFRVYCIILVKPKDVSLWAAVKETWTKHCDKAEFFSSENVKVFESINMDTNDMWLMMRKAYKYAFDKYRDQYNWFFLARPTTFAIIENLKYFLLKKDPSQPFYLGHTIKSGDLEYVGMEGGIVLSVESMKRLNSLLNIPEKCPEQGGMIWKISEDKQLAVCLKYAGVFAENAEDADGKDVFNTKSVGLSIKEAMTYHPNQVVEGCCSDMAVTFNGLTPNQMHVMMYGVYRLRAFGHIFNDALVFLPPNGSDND
UniProt Q86YS7: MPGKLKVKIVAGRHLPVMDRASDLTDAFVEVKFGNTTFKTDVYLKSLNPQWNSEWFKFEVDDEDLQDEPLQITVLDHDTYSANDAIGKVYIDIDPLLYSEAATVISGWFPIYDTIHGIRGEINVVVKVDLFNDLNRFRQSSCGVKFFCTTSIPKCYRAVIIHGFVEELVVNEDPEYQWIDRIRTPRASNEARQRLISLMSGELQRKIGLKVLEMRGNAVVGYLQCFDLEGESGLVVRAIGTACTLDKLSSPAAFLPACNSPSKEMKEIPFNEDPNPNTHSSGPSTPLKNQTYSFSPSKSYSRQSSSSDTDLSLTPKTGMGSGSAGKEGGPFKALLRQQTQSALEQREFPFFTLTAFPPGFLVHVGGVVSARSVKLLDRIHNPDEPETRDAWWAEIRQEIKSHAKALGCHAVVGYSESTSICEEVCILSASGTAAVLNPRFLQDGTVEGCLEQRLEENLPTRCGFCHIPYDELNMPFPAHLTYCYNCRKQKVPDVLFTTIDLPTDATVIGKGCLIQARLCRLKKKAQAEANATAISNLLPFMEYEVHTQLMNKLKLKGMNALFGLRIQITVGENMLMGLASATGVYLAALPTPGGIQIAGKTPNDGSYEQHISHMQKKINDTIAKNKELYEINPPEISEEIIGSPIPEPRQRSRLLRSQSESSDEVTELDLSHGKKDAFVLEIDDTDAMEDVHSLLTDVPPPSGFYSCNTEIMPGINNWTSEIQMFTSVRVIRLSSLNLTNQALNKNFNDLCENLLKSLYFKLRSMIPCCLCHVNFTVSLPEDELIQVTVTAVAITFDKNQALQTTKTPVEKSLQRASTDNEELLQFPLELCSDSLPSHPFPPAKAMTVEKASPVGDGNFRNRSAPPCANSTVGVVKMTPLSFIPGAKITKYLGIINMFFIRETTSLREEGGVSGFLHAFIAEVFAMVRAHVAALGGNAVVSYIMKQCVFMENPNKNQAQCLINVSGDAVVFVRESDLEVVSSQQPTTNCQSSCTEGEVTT
UniProt Q9Y426: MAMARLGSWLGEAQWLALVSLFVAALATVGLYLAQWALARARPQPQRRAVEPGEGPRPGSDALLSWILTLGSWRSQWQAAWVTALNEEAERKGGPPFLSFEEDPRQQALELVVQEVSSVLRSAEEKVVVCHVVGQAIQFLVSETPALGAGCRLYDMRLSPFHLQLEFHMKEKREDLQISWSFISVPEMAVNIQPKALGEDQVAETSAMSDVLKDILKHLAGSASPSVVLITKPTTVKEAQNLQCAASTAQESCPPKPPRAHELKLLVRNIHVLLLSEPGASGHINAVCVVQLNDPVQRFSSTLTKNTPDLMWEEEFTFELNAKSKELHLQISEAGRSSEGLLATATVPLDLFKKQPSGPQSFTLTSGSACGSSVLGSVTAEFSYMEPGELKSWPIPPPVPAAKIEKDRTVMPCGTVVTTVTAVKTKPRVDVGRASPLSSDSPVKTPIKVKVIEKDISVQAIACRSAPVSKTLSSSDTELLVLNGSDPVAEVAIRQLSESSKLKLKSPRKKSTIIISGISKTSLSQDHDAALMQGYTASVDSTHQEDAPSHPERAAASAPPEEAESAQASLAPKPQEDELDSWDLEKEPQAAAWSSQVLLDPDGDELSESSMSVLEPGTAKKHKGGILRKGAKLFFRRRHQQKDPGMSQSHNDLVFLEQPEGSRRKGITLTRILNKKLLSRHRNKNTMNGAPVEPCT
UniProt Q8N6N3: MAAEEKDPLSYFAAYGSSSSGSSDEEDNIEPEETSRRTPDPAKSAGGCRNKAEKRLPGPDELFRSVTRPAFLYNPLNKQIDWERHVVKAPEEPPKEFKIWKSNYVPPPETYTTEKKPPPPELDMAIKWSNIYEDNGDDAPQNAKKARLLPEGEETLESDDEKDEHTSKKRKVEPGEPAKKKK

Compound: c1cn2cc(-c3ccc4cn[nH]c4c3)nc(Nc3ccc(N4CCOCC4)cc3)c2n1 [entospletinib]
Assay: log2 fold change, soluble protein after heating vs DMSO (PISA); higher = thermal stabilisation; K562 cells, 10 uM, 30 min; active = over 0.2 and 3.5 SD of the protein, either way, in both replicates (recomputed)
How it was run: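 K562 cells at 2×10^6 cells/mL were exposed to 10 μM compound for 30 min, then aliquots were heated for 3 min across 48°C-58°C, pooled, and extracted in PBS containing 0.5% NP-40 at 4°C. The supernatant after 21,000xg for 90 min was taken as soluble protein and measured by TMTpro 16plex LC-MS/MS with channel sums equalised. Thermal stability is reported relative to control samples, with values from duplicates. Fold changes are given on a log2 scale.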

log2 fold change, inactive:
C2orf49 (UniProt Q9BVC5) 0.025
C17orf75 (UniProt Q9HAS0) -0.029
CAPN7 (UniProt Q9Y6W3) -0.015
C12orf73 (UniProt Q69YU5) 0.039
C1QBP (UniProt Q07021) 0.054
C1GALT1C1 (UniProt Q96EU7) 0.032
C2CD5 isoform 4 (UniProt Q86YS7) -0.064
C2CD2 (UniProt Q9Y426) 0.061
C1orf52 (UniProt Q8N6N3) 0.024

As a short view, some entries already given:
log2 fold change, inactive:
C2orf49 (UniProt Q9BVC5) 0.025
C17orf75 (UniProt Q9HAS0) -0.029
